# Paper PMC7819943, “Rice protein-binding microarrays: a tool to detect cis-acting elements near promoter regions in rice”
# Protein sequences, listed by entry. Tags and fused reporters are not part of them.
# UniProt Q0JBA9, entry or part of it: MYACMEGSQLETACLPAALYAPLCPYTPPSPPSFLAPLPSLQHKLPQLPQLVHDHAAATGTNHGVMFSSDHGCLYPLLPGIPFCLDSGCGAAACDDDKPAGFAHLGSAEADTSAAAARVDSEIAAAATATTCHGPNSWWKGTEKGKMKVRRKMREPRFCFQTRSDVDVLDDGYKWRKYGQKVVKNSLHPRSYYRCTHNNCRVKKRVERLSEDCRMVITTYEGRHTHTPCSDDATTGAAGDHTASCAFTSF
# The other results are listed elsewhere or left out.
# Target: OsWRKY34 (Oryza sativa, UniProt Q0JBA9 1-250)
# Test: protein-binding microarray (RPBM); PBS, 2% BSA, 51.3 ng/ul salmon testes DNA, 50 uM zinc acetate, 200 nM TF, 25 C, 1 h; high values mean tight binding
# Conditions: protein: recombinant; tags: N-terminal polyhistidine and DsRed monomer fusion (pET32a); label: CyDye5-dUTP incorporated in the synthesized complementary strand; 3' TTTTT single-stranded linker to array surface; dsDNA, one strand shown
# Method in brief: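 Binding signal here means per-feature fluorescence intensity in arbitrary units. The values were read on an Axon 4000B scanner after a custom Agilent array, double-stranded by primer extension with Cy5-dUTP, was incubated with 200 nM protein at 25 °C for 1 h in PBS with 2% BSA, salmon testes DNA and 50 µM zinc acetate, then washed. The proteins were transcription factors with an N-terminal polyhistidine tag and DsRed, expressed in E. coli BL21-CodonPlus and purified on Ni–NTA.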
row,Sequence,binding signal
1,AGGTGGTGTGATGTGAAAGTAAATTTGTCATCCCCGGTGCCGGAGTCACCTAGTGCAG,8080 fluorescence intensity (a.u.)
2,ATGTCATTGGGTTGGGCCTTATTTTCAAAAATACCCAAAACGGAGTCACCTAGTGCAG,13700 fluorescence intensity (a.u.)
3,CAGTAAATTTAATCGTCACCGTACAATTATCGTATTTCGCCGGAGTCACCTAGTGCAG,8050 fluorescence intensity (a.u.)
4,TATTGTTCCATGTCGGCACCACATCACCCAAAAACGTCTTCGGAGTCACCTAGTGCAG,9270 fluorescence intensity (a.u.)
5,TCAGTAGCATTTCCGGGTCCCATCTATATGGACTAATTTTCGGAGTCACCTAGTGCAG,9100 fluorescence intensity (a.u.)
6,CTATACACACCCATCTCACCATAACACACATACATAGATACGGAGTCACCTAGTGCAG,9790 fluorescence intensity (a.u.)
7,ACTATTTGTTTATTGCAAAATACGGGCTTTTTCAAATTAGCGGAGTCACCTAGTGCAG,8170 fluorescence intensity (a.u.)
8,AGAAAAAAACGTAGAGATCCACGCCGCATTCTCCATTTCTCGGAGTCACCTAGTGCAG,9510 fluorescence intensity (a.u.)
9,TCTGAACATCGATCGAGTTGACCACTGTCGTTTTAGTTTCCGGAGTCACCTAGTGCAG,13900 fluorescence intensity (a.u.)
10,TTTATGCTAGTGTGTTGTGTGTGGATGTATATCCGTGTGGCGGAGTCACCTAGTGCAG,8990 fluorescence intensity (a.u.)
11,TAGTTGCTACTAGAGTGTGTTTCTTGTGTTGATCTGAGTTCGGAGTCACCTAGTGCAG,9590 fluorescence intensity (a.u.)
12,GCCCGCTAGTTTGTCCTATGCAGCCGCCCTACGTCAGCCACGGAGTCACCTAGTGCAG,9640 fluorescence intensity (a.u.)
13,ACTCCGCCGCCACCACGAACTCAATTCCACGGGACAAATTCGGAGTCACCTAGTGCAG,8330 fluorescence intensity (a.u.)
14,GCACAGGATTCTGATTTCTAAGCTACCTCTGCCTAGCCTCCGGAGTCACCTAGTGCAG,8570 fluorescence intensity (a.u.)
15,GCCTCTGCTTCTCGAAGCCCGGCCTGTAGCCTCGCCTCGCCGGAGTCACCTAGTGCAG,8630 fluorescence intensity (a.u.)
16,CGTTCCCATTCCCCGGCCGTTTTCTTGGTGTTTGCATTGCCGGAGTCACCTAGTGCAG,10200 fluorescence intensity (a.u.)
17,TTTTAATTATGCTCAAGTCATCTTCTCTCAAACTGTTTTTCGGAGTCACCTAGTGCAG,9000 fluorescence intensity (a.u.)
18,ACCAAAACTTTTGACCTTTGACCATGAGTTTCATATTATACGGAGTCACCTAGTGCAG,9480 fluorescence intensity (a.u.)
19,GCAACCTCCTCCGCCTCCGTGAACGACCGCCGCCGCTCGTCGGAGTCACCTAGTGCAG,8520 fluorescence intensity (a.u.)
20,ATATGGTATGACAACTATCCATCCGAATCCGCTCCATTTTCGGAGTCACCTAGTGCAG,8400 fluorescence intensity (a.u.)
21,AGTCTCTTGCCCTTTACCTTGGATATACACATGCTCATTCCGGAGTCACCTAGTGCAG,8980 fluorescence intensity (a.u.)

row,Sequence,binding signal
1,TTTGATTGATGGCCATAAGTTGCCACACTTTGCCACACTTCGGAGTCACCTAGTGCAG,8110 fluorescence intensity (a.u.)
2,TTCTTCTGTTCAGCTGTCCTCCGTTCCTCCTTACCATGCACGGAGTCACCTAGTGCAG,9450 fluorescence intensity (a.u.)
3,CACCATTCCACCAACTAGCTAGCTAGCTAGCCACGCCATCCGGAGTCACCTAGTGCAG,8970 fluorescence intensity (a.u.)
4,TACTTAGCAAAAGCATCATTATCGAGGCACGGTTTTTTATCGGAGTCACCTAGTGCAG,8450 fluorescence intensity (a.u.)
5,CCGGGAGCCGCAGCCCGCAGTTCGCCACCACCACGGTCCACGGAGTCACCTAGTGCAG,9520 fluorescence intensity (a.u.)
6,GCGCCGTCGCTCGTCCTGCTGCTGCTTCCGCCGAATCCTGCGGAGTCACCTAGTGCAG,10800 fluorescence intensity (a.u.)
7,GCCACAGCTCTTGATTTCTCGCTGGATCCTGGTTTTCACCCGGAGTCACCTAGTGCAG,8430 fluorescence intensity (a.u.)
8,GTCTGTTTCGATCGGTTCTTCCATTGGTACACACACGTCCCGGAGTCACCTAGTGCAG,11300 fluorescence intensity (a.u.)
9,TGTGATTTTGTGAGTAATTATTTTCTACTTTGCTAGCTTCCGGAGTCACCTAGTGCAG,8910 fluorescence intensity (a.u.)
10,GCGCCTCGCCTCGCCTCGCCTCACCTCACCTCACCTCACCCGGAGTCACCTAGTGCAG,9000 fluorescence intensity (a.u.)
11,ATCCAATCTCCTCCTCGCCGCCATCGCGATCTCCGCCGCCCGGAGTCACCTAGTGCAG,8120 fluorescence intensity (a.u.)
12,GTCTCGCCTTCGCCTCGCCTCGTCTGCTCCACCATCCACCCGGAGTCACCTAGTGCAG,8970 fluorescence intensity (a.u.)
13,GGCTTTTCCCCTTAGGGGATGATTTGAGTTTTCCTGTTCACGGAGTCACCTAGTGCAG,8480 fluorescence intensity (a.u.)
14,ACGCAGCATCCTTTGTTTTTTCAACTTGCTTACACAGTTACGGAGTCACCTAGTGCAG,8430 fluorescence intensity (a.u.)
15,ATCCTGGCCACTCGTACCCGTTATAACTTGTCGATCGCTTCGGAGTCACCTAGTGCAG,13900 fluorescence intensity (a.u.)
16,CACCATTATCAACTTCCATGTTCATCCGCGTACTGAACACCGGAGTCACCTAGTGCAG,8280 fluorescence intensity (a.u.)
17,ATCCTACTTTCCTATTGCTGTCATATGTGTCACGGCTGAACGGAGTCACCTAGTGCAG,11100 fluorescence intensity (a.u.)
18,TTTTTCCAATCTCAATTCGCGCATGCACGCGGCCCAACAACGGAGTCACCTAGTGCAG,8840 fluorescence intensity (a.u.)
19,CCTTGTTCTTCGGCGATCATTTCGGCTTCTTTTTTGTGGTCGGAGTCACCTAGTGCAG,9590 fluorescence intensity (a.u.)
20,AGACAAGTTCGAGTCTCTCTTGCCTCGCGCAGGCACACTCCGGAGTCACCTAGTGCAG,8440 fluorescence intensity (a.u.)
21,TCGCACGTTGCTCATTGGATACCTTTTCTGCGCACTACTACGGAGTCACCTAGTGCAG,9800 fluorescence intensity (a.u.)

# In another format: results already given.
row | Sequence | binding signal
8 | GTCTGTTTCGATCGGTTCTTCCATTGGTACACACACGTCCCGGAGTCACCTAGTGCAG | 11300 fluorescence intensity (a.u.)
9 | TGTGATTTTGTGAGTAATTATTTTCTACTTTGCTAGCTTCCGGAGTCACCTAGTGCAG | 8910 fluorescence intensity (a.u.)
